Results: the supplement of paper PMC12067093, “Discovery and optimisation of a covalent ligand for TRIM25 and its application to targeted protein ubiquitination” (Chemical Science, 2025)
This is one part of the list.

The chains behind the UniProt entries cited, without tags or fusion partners. Where a name states a change or a piece, a line headed by the entry shows the natural chain unless it says otherwise.
UniProt Q8IWZ3: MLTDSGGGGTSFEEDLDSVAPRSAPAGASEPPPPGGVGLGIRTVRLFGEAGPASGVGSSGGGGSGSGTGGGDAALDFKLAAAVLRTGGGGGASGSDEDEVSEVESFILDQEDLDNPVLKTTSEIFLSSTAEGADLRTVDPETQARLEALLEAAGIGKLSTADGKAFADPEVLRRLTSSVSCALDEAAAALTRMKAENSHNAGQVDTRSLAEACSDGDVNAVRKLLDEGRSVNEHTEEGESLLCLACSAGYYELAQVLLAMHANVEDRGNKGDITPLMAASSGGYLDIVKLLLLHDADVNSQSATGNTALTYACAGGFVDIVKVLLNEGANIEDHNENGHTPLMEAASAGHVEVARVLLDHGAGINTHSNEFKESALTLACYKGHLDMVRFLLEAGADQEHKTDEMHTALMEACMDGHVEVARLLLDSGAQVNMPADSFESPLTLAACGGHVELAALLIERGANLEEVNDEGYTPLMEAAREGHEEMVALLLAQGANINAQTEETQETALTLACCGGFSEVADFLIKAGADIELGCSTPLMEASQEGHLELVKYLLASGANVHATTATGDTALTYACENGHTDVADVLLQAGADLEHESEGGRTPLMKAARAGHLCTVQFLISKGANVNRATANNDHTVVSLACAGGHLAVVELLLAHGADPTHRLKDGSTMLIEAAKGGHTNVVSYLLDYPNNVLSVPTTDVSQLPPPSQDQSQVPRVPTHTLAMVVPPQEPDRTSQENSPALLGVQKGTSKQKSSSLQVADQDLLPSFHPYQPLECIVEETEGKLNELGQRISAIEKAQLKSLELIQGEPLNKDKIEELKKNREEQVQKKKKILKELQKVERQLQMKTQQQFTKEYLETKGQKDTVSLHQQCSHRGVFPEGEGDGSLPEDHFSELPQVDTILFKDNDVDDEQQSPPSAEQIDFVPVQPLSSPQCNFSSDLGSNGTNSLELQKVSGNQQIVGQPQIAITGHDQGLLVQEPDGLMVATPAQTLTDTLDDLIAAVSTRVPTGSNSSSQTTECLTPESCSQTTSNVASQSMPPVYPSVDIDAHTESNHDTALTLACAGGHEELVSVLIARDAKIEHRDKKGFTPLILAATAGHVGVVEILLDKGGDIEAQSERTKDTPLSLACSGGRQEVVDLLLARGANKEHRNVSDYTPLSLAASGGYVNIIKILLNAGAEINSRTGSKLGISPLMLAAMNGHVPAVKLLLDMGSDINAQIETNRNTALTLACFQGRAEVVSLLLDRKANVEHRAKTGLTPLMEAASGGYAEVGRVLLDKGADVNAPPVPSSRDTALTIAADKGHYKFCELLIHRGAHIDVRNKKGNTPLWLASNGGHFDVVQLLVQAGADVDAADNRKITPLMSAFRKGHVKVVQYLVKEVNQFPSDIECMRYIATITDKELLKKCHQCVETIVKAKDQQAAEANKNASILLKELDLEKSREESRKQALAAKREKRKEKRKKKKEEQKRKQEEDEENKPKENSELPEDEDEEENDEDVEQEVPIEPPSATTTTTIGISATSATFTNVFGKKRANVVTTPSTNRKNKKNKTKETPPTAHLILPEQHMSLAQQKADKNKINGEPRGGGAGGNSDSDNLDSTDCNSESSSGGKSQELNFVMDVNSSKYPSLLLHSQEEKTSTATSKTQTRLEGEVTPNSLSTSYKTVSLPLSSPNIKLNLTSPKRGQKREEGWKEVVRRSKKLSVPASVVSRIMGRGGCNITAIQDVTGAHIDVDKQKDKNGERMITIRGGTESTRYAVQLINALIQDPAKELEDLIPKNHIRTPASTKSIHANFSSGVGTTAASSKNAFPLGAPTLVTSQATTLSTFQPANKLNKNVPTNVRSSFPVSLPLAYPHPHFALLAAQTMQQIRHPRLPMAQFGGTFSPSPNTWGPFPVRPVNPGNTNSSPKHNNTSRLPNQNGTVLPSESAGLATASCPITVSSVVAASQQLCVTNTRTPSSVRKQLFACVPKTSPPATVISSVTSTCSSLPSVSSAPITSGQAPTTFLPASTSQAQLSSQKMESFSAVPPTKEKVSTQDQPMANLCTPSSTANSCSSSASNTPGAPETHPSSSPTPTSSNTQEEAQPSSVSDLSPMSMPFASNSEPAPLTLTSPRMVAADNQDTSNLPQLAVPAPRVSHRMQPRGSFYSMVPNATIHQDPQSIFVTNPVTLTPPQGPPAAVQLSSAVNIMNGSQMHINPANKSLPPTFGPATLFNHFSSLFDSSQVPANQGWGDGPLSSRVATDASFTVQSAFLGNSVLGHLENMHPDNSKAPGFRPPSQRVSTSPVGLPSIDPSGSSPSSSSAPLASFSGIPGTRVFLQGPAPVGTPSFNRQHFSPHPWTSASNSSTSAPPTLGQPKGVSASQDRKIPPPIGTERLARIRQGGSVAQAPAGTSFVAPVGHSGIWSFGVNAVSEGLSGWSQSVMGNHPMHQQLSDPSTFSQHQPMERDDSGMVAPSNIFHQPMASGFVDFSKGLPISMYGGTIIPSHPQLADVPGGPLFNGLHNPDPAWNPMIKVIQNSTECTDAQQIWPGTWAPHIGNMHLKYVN
UniProt Q8IZ07: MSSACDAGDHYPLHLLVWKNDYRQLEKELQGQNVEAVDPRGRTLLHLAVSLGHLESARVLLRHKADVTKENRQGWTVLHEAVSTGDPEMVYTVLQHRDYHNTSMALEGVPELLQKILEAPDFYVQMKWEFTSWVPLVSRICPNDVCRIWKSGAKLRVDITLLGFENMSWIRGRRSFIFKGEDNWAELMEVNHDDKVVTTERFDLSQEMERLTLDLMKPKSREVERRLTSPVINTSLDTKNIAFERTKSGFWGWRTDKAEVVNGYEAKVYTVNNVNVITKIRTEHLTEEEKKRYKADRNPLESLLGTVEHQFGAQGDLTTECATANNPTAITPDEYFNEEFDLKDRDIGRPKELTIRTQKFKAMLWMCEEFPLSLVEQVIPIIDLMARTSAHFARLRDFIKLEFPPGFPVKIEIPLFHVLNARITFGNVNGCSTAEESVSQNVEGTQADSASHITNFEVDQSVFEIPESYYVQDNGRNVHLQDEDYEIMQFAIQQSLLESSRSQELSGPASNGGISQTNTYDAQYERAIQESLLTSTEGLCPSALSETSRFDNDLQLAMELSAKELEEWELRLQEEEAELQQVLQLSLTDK
UniProt P63010: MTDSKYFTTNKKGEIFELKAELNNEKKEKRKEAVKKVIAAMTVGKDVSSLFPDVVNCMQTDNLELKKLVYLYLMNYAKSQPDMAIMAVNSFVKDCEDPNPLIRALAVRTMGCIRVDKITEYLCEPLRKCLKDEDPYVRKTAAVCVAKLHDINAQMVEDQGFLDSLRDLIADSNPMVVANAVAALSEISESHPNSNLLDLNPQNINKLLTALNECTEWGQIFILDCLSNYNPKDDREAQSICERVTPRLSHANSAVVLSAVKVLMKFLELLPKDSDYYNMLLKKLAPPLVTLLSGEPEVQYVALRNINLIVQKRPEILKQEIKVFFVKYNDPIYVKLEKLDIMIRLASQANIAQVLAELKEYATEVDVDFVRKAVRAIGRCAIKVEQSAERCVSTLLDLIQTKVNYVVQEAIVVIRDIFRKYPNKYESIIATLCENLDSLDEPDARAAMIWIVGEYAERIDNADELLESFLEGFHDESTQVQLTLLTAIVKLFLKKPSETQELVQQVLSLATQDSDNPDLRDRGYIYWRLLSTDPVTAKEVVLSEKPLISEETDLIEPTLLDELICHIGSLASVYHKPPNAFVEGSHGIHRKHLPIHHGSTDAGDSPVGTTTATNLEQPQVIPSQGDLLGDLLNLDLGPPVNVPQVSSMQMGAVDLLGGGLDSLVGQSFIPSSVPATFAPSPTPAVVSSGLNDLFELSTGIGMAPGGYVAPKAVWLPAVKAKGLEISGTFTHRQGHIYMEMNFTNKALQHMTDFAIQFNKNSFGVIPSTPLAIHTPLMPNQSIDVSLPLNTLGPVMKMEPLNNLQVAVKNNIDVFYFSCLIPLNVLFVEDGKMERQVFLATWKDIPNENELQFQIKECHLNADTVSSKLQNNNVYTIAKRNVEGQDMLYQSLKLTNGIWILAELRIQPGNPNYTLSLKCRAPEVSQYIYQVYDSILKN
UniProt Q8NB46: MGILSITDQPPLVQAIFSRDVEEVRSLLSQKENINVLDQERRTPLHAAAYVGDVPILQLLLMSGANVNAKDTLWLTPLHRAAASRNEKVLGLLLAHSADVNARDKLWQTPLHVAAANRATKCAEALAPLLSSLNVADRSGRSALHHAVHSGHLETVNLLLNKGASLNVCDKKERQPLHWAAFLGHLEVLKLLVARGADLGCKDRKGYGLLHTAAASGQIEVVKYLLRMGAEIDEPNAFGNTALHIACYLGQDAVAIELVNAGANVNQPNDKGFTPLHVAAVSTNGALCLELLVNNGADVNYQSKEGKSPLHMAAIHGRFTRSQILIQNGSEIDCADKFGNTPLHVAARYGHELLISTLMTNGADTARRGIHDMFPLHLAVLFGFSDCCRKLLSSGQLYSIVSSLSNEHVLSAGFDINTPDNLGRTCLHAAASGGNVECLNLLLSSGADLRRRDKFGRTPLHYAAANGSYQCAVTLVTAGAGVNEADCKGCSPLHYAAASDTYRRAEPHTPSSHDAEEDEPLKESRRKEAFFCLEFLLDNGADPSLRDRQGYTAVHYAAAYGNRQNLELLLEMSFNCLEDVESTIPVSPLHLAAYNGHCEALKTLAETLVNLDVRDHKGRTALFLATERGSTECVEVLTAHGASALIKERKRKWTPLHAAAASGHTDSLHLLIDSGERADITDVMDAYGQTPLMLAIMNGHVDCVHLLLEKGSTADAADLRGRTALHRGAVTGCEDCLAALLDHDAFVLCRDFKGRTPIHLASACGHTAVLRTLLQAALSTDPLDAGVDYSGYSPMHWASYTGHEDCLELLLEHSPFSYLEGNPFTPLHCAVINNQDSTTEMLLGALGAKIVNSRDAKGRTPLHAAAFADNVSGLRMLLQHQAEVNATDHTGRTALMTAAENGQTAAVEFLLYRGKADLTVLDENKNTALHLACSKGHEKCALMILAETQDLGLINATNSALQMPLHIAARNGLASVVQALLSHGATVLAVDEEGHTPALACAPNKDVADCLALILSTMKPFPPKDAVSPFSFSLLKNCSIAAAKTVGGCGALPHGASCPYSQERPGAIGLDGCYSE
UniProt P08133: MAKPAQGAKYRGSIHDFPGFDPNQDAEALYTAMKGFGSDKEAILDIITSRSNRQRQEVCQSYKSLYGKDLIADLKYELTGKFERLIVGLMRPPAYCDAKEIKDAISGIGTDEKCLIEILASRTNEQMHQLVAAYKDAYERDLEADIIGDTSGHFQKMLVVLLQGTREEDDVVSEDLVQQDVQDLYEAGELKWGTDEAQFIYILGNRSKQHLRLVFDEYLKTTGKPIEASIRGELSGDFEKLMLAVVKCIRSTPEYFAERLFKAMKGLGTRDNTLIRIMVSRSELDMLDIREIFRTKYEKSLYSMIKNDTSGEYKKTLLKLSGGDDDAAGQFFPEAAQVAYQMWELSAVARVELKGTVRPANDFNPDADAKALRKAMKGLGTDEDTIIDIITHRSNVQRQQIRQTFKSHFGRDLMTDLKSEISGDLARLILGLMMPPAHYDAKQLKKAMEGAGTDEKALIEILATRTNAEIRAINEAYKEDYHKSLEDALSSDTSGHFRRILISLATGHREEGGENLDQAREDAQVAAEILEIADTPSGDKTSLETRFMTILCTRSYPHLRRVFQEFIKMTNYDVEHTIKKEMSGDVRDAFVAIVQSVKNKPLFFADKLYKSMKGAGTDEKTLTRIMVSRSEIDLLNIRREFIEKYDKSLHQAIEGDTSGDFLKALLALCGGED
UniProt Q7Z5R6: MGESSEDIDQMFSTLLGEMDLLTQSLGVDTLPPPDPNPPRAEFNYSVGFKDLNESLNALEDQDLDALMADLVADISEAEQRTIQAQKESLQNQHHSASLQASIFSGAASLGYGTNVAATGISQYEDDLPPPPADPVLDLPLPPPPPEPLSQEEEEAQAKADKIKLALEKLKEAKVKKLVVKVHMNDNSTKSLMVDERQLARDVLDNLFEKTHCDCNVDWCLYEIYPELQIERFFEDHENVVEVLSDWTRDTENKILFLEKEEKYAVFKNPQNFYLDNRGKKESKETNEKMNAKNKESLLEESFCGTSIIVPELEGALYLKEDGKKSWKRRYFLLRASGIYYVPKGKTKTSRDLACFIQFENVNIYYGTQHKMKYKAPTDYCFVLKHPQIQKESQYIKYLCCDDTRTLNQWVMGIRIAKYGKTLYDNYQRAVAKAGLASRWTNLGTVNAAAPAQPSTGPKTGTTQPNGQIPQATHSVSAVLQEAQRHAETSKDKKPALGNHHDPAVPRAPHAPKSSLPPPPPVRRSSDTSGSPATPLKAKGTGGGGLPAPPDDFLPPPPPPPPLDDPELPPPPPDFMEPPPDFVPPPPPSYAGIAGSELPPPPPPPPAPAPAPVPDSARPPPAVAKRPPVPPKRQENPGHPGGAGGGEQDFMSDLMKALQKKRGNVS

Compound: Cc1cc(ccc1-c1ccccc1)C(=O)N1CCCN(CC1)C(=O)CCl [compound 10]
Assay: probe-labelled cysteine peptide fold change vs DMSO (competition) (log2 fold change); higher = less target engagement (more negative = stronger competition)
Conditions: THP-1, incubation time: 4 h
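Also: competitive profiling in live THP-1 cells: cysteine peptides tagged with an iodoacetamide desthiobiotin (IA-DTB) probe, intensity after compound treatment relative to DMSO-treated cells.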

Target	probe-labelled cysteine peptide fold change (10 µM)	probe-labelled cysteine peptide fold change (50 µM)
APEX1_P27695_296_LDYFLLSHSLLPALCDSK (UniProt P27695)	0.17	0.246
AP3D1_O14617_348_DLILQCLDDKDESIR (UniProt O14617)	-0.112	0.0234
ANKMY2_Q8IV38_341_MVIYCDQTCQK (UniProt Q8IV38)	-0.0709	0.00724
ANKHD1_Q8IWZ3_2518_VIQNSTECTDAQQIWPGTWAPHIGNMHLK (UniProt Q8IWZ3)	0.0222	0.581
ANKRD39_Q53RE8_107_ASYCGHTEIAR (UniProt Q53RE8)	0.075	-0.305
APAF1_O14727_1083_DFVCHQGTVLSCDISHDATK (UniProt O14727)	0.0692	-0.041
APLP2_Q06481_160_MEVCENHQHWHTVVK (UniProt Q06481)	-0.242	-0.455
AP1B1_Q10567-3_914_IQPGNPSCTLSLK (UniProt Q10567)	0.133	0.133
ANKHD1_Q8IWZ3_615_AGHLCTVQFLISK (UniProt Q8IWZ3)	-0.149	-0.568
AP2A2_O94973_491_TVFEALQAPACHENLVK (UniProt O94973)	0.0467	-0.0424
AP2A2_O94973_396_AVDLLYAMCDR (UniProt O94973)	0.187	0.327
AP4S1_Q9Y587_122_VHIILDEMVLNGCIVETNR (UniProt Q9Y587)	-0.0316	0.117
ANKRD44_Q8N8A2_914_DLNTPLHLACSK (UniProt Q8N8A2)	-0.204	-0.355
ANKRD13A_Q8IZ07_5_SSACDAGDHYPLHLLVWK (UniProt Q8IZ07)	-0.198	-0.145
ANKRD28_O15084_598_GHVECVDVLINQGASILVK (UniProt O15084)	-0.0607	-0.351
ANXA11_P50995_294_GVGTDEACLIEILASR (UniProt P50995)	-0.071	-0.0761
AP2B1_P63010_144_KTAAVCVAK (UniProt P63010)	-0.0881	-0.732
ANKRD52_Q8NB46_733_GAVTGCEDCLAALLDHDAFVLCR (UniProt Q8NB46)	0.0081	-0.433
ANXA6_P08133_59_QEVCQSYK (UniProt P08133)	0.0581	0.0246

Target	probe-labelled cysteine peptide fold change (10 µM)	probe-labelled cysteine peptide fold change (50 µM)
ANKMY2_Q8IV38_205_VMDLICEK (UniProt Q8IV38)	-0.173	-0.106
ANKRD27_Q96NW4_39_VAQIHGIVLVPCK (UniProt Q96NW4)	-0.103	-0.193
AP2A2_O94973_330_ACNQLGQFLQHR (UniProt O94973)	0.0043	0.00133
APLP2_Q06481_80_SCFETK (UniProt Q06481)	-0.244	-0.128
AP2M1_Q96CW1_246_QSIAIDDCTFHQCVR (UniProt Q96CW1)	0.118	-0.0483
ANO10_Q9NW15_92_ECNDNTMR (UniProt Q9NW15)	-0.0436	0.125
ANXA2_P07355_262_GDLENAFLNLVQCIQNK (UniProt P07355)	0.0399	0.572
ANKRD28_O15084_701_GAVTGHEECVDALLQHGAK (UniProt O15084)	-0.144	-0.418
ANKRD49_Q8WVL7_149_AAYSGHLDIVQELIAQGADVHAVTVDGWTPLHSACK (UniProt Q8WVL7)	0.0824	-0.0101
AP1G1_O43747_160_AALCAVHVIR (UniProt O43747)	0.0436	0.00344
ANKRD50_Q9ULJ7_442_MLAMSYTCQAK (UniProt Q9ULJ7)	-0.0618	-0.0358
APOBEC3G_Q9HC16_160_IMNYDEFQHCWSK (UniProt Q9HC16)	0.0829	0.168
APMAP_Q9HDC9_149_DDEPVCGR (UniProt Q9HDC9)	0.377	0.515
ANKLE2_Q86XL3_367_ENQASICQLTLDVLENPDFMR (UniProt Q86XL3)	0.261	0.342
APBB1IP_Q7Z5R6_215_THCDCNVDWCLYEIYPELQIER (UniProt Q7Z5R6)	-0.0357	0.33
APBB1IP_Q7Z5R6_401_YLCCDDTR (UniProt Q7Z5R6)	-0.318	-0.372
ANKHD1_Q8IWZ3_213_SLAEACSDGDVNAVRK (UniProt Q8IWZ3)	0.0471	0.0108
ANXA6_P08133_114_CLIEILASR (UniProt P08133)	0.0273	0.0524

Given with bars between the fields: entries from further up.
Target | probe-labelled cysteine peptide fold change (10 µM) | probe-labelled cysteine peptide fold change (50 µM)
ANKRD13A_Q8IZ07_5_SSACDAGDHYPLHLLVWK (UniProt Q8IZ07) | -0.198 | -0.145
ANKRD28_O15084_598_GHVECVDVLINQGASILVK (UniProt O15084) | -0.0607 | -0.351
ANXA11_P50995_294_GVGTDEACLIEILASR (UniProt P50995) | -0.071 | -0.0761
AP2B1_P63010_144_KTAAVCVAK (UniProt P63010) | -0.0881 | -0.732
ANKRD52_Q8NB46_733_GAVTGCEDCLAALLDHDAFVLCR (UniProt Q8NB46) | 0.0081 | -0.433
ANXA6_P08133_59_QEVCQSYK (UniProt P08133) | 0.0581 | 0.0246
ANKMY2_Q8IV38_205_VMDLICEK (UniProt Q8IV38) | -0.173 | -0.106
ANKRD27_Q96NW4_39_VAQIHGIVLVPCK (UniProt Q96NW4) | -0.103 | -0.193
AP2A2_O94973_330_ACNQLGQFLQHR (UniProt O94973) | 0.0043 | 0.00133
APLP2_Q06481_80_SCFETK (UniProt Q06481) | -0.244 | -0.128
